Test results published in PubChem BioAssay AID328 (DTP/NCI, 2004).
The list does not hold the whole screen: it gathers tests that were run many times, whatever their T/C, doses with no T/C, and many T/C values between a quarter and a half above the control. Other doses and runs of a compound stand elsewhere. T/C: endpoint of the treated group in % of that of the vehicle group. Some entries give survivors of the animals treated and no T/C: the source files T/C as zero there, which appears to mark a toxic dose or a test without result, not a measured value. Some survivor counts are full or nearly so, which does not show that the dose was tolerated: survival well below the control is almost never listed, so the zero probably covers shortened survival too. Survivors were counted at the toxicity check, usually on the fifth day, unless a day is given; later deaths do not show. Schedule codes are those of the source, read here as Q, the interval in days (D) or hours (H), X, the number of doses. Where survival is the endpoint, this PubChem deposit counts one and a half times the control or more as active, and values a quarter to a half above the control carry no call in these data; other NCI protocols may use other cut-offs. Some doses were run more than once; their values stand side by side, smallest first. Some T/C values carry the count of animals alive at the toxicity check (mostly the fifth day); where none is given, no animal had died by that day.

Tested on: BDF1 mice, P388 leukemia ip, median survival T/C
Assay: NCI In Vivo Anticancer Drug Screen. Data for tumor model P388 Leukemia (intraperitoneal) in B6D2F1 (BDF1) mice
Conditions: T/C endpoint: median survival time, higher T/C = longer survival
In short: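 Transplantable tumour in mice; compound vs vehicle dosing; survival scored; ratio of treated to control reported.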

[1] = dose: 150.0 mg/kg/injection, schedule: Q04DX003 (ip), vehicle: saline with Tween-80
[2] = dose: 100.0 mg/kg/injection, schedule: Q01DX009 (ip), vehicle: saline
[3] = dose: 400.0 mg/kg/injection, schedule: Q01DX009 (ip), vehicle: saline
[4] = dose: 12.5 mg/kg/injection, schedule: Q01DX009 (ip), vehicle: saline with Tween-80
[5] = dose: 25.0 mg/kg/injection, schedule: Q01DX009 (ip), vehicle: saline with Tween-80
[6] = dose: 50.0 mg/kg/injection, schedule: Q01DX009 (ip), vehicle: saline with Tween-80

SMILES: CCCCCCC/C=N/N=C/CCCCCCC
- T/C (dose: 200.0 mg/kg/injection, schedule: Q01DX009 (ip), vehicle: other): 127 % of control
- T/C (dose: 266.0 mg/kg/injection, schedule: Q01DX009 (ip), vehicle: other): 127 % of control [5 of 6 alive]
- T/C (dose: 400.0 mg/kg/injection, schedule: Q01DX009 (ip), vehicle: other): 127 % of control
- survivor count (dose: 400.0 mg/kg/injection, schedule: Q04DX003 (ip), vehicle: other): 6 of 6

SMILES: COc1ccc(-c2csc(-c3ccccc3)n2)cc1N=Cc1ccc(N(CCCl)CCCl)c(OC)c1
- T/C (dose: 9.0 mg/kg/injection, schedule: Q04DX003 (ip), vehicle: saline with Tween-80): 145 % of control
- T/C [1]: 130 % of control
- survivor count [1]: 5 of 6
- survivor count (dose: 200.0 mg/kg/injection, schedule: Q01DX009 (ip), vehicle: saline with Tween-80): 5 of 6
- survivor count (dose: 400.0 mg/kg/injection, schedule: Q01DX009 (ip), vehicle: saline with Tween-80): 0 of 6

SMILES: FC(F)(F)c1ccc2c(c1)N(CCCN(CCCl)CCCl)c1ccccc1S2
- T/C (dose: 12.5 mg/kg/injection, schedule: Q04DX003 (ip), vehicle: saline with Tween-80): 128 % of control [5 of 6 alive]

SMILES: C/C=C/C(=O)OCC1CC[N+](C)([O-])C1 (stereo not drawn)
- survivor count [2]: 4 of 4
- survivor count [3]: 4 of 4

SMILES: O=C(O)CCC(=O)CCl
- T/C (dose: 8.0 mg/kg/injection, schedule: Q01DX009 (ip), vehicle: saline): 125 % of control
- T/C (dose: 8.25 mg/kg/injection, schedule: Q01DX009 (ip), vehicle: saline): 127 % of control
- T/C [4]: 136 % of control
- T/C (dose: 12.5 mg/kg/injection, schedule: Q01DX009 (ip), vehicle: saline): 127 % of control
- T/C (dose: 18.0 mg/kg/injection, schedule: Q01DX009 (ip), vehicle: saline): 137 % of control
- T/C (dose: 18.75 mg/kg/injection, schedule: Q01DX009 (ip), vehicle: saline): 136 % of control [5 of 6 alive]
- T/C [5]: 140 % of control
- survivor count [6]: 3 of 6

SMILES: CC(=O)Nc1ccc(N=Nc2ccccc2)cc1F
- T/C (dose: 200.0 mg/kg/injection, schedule: Q01DX009 (ip), vehicle: Klucel (hydroxypropylcellulose) (HPC)): 140 % of control

SMILES: O=C(NC(Cc1ccccc1)C(=O)CCl)OCc1ccccc1 (stereo not drawn)
- T/C (dose: 10.0 mg/kg/injection, schedule: Q01DX009 (ip), vehicle: saline with Tween-80): 125 % of control
- T/C (dose: 11.0 mg/kg/injection, schedule: Q01DX009 (ip), vehicle: saline with Tween-80): 131 and 140 % of control
- T/C [4]: 127 % of control
- T/C (dose: 16.5 mg/kg/injection, schedule: Q01DX009 (ip), vehicle: saline with Tween-80): 127 [5 of 6 alive] and 142 % of control
- T/C [5]: 127 % of control
- survivor count [6]: 6 of 6

SMILES: COc1cc2c[n+](C)c3c4cc5c(cc4ccc3c2cc1OC)OCO5 (tested in a mixture with another compound)
- T/C (dose: 2.5 mg/kg/injection, schedule: Q01DX009 (ip), vehicle: water): 133 % of control
- T/C (dose: 5.0 mg/kg/injection, schedule: Q01DX009 (ip), vehicle: water): 144 % of control
- T/C (dose: 40.0 mg/kg/injection, schedule: Q01DX009 (ip), vehicle: saline): 139 % of control
- survivor count (dose: 80.0 mg/kg/injection, schedule: Q01DX009 (ip), vehicle: saline): 8 of 8
- survivor count (dose: 80.0 mg/kg/injection, schedule: Q01DX009 (ip), vehicle: water): 4 of 8
- survivor count [2]: 5 of 6
- survivor count (dose: 120.0 mg/kg/injection, schedule: Q01DX009 (ip), vehicle: saline): 1 of 6
- survivor count (dose: 240.0 mg/kg/injection, schedule: Q01DX009 (ip), vehicle: saline): 0 of 6

SMILES: CCOC(=O)c1cnc(N(C)C)[nH]c1=O
- survivor count [2]: 3 of 3
- survivor count (dose: 200.0 mg/kg/injection, schedule: Q01DX009 (ip), vehicle: saline): 3 of 3
- survivor count [3]: 0 of 3
